Data: the supplement of paper PMC10849652
This is one part of the list.

Amino acid sequences for entries named in this document (tags omitted). A change or cut given only in a name is not applied to a line headed by its entry.
UniProt Q6AI12: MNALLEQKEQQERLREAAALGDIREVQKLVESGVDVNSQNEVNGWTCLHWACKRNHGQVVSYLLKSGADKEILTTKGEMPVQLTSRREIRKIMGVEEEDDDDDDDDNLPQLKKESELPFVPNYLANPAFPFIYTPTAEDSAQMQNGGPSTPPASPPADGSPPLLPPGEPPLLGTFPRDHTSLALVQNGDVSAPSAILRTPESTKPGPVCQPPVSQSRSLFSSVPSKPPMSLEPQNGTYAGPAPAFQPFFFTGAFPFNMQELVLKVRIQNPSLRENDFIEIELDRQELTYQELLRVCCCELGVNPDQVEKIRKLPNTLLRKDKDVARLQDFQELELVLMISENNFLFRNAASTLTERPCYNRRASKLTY
UniProt P61966: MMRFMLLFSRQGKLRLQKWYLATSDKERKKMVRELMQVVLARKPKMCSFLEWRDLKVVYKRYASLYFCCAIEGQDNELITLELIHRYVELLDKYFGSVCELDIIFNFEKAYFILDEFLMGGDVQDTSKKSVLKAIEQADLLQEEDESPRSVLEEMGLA
UniProt Q9UPM8: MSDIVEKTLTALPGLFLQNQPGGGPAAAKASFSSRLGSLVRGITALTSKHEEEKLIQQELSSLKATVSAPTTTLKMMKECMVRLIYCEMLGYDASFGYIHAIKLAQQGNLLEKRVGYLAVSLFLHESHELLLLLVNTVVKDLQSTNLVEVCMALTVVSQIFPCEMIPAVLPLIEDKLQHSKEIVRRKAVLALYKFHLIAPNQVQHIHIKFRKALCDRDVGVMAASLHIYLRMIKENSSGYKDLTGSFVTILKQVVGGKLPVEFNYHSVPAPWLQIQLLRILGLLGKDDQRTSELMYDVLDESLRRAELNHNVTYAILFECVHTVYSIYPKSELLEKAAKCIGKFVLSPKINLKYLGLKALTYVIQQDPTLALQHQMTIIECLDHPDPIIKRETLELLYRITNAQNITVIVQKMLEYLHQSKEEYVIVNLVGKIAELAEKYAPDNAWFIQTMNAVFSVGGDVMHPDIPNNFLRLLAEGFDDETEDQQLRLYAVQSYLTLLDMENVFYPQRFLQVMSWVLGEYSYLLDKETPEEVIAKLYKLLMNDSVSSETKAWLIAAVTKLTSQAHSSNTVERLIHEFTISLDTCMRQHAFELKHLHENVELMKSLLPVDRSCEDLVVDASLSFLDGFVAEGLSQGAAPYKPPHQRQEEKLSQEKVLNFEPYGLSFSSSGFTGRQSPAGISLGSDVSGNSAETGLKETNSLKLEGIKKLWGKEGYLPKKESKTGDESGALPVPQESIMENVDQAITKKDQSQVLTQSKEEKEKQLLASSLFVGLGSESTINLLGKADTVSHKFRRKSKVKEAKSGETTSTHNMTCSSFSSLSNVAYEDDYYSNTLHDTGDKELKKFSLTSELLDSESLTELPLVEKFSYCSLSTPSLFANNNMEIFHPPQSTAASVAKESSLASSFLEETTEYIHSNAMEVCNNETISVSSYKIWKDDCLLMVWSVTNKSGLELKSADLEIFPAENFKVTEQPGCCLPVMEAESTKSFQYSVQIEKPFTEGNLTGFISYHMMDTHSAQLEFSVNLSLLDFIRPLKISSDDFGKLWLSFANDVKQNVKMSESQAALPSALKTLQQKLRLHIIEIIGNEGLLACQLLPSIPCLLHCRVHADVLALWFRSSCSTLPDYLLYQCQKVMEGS
UniProt O14617: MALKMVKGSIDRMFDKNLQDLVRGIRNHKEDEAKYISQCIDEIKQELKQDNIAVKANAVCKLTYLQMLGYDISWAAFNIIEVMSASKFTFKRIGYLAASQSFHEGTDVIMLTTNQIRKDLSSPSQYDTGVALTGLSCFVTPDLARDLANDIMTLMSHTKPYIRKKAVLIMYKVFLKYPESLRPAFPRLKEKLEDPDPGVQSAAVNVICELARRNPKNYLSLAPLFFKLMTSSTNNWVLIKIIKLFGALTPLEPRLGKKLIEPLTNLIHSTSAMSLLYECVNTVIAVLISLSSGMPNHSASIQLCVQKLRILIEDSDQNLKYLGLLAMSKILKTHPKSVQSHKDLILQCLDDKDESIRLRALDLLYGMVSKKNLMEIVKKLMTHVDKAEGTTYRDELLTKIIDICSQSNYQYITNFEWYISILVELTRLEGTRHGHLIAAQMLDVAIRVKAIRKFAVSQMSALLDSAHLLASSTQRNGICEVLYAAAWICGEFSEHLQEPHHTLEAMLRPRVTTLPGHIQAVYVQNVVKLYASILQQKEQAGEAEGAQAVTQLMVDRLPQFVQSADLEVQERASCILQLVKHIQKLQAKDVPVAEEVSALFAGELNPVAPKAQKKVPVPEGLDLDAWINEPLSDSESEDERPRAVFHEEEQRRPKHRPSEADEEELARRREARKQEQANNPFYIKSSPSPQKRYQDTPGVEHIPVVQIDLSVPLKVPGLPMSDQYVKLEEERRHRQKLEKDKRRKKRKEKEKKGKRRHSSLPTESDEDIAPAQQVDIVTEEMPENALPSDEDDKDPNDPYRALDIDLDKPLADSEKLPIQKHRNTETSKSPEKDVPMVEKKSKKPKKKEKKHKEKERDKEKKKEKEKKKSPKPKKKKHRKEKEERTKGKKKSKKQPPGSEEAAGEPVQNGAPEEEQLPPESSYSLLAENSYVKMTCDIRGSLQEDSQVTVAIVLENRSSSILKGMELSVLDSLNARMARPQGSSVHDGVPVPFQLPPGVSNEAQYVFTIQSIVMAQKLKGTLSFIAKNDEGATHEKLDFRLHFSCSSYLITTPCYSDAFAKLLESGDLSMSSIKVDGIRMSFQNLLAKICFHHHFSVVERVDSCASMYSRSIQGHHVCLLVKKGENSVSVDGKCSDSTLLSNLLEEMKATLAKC
UniProt Q6UB99: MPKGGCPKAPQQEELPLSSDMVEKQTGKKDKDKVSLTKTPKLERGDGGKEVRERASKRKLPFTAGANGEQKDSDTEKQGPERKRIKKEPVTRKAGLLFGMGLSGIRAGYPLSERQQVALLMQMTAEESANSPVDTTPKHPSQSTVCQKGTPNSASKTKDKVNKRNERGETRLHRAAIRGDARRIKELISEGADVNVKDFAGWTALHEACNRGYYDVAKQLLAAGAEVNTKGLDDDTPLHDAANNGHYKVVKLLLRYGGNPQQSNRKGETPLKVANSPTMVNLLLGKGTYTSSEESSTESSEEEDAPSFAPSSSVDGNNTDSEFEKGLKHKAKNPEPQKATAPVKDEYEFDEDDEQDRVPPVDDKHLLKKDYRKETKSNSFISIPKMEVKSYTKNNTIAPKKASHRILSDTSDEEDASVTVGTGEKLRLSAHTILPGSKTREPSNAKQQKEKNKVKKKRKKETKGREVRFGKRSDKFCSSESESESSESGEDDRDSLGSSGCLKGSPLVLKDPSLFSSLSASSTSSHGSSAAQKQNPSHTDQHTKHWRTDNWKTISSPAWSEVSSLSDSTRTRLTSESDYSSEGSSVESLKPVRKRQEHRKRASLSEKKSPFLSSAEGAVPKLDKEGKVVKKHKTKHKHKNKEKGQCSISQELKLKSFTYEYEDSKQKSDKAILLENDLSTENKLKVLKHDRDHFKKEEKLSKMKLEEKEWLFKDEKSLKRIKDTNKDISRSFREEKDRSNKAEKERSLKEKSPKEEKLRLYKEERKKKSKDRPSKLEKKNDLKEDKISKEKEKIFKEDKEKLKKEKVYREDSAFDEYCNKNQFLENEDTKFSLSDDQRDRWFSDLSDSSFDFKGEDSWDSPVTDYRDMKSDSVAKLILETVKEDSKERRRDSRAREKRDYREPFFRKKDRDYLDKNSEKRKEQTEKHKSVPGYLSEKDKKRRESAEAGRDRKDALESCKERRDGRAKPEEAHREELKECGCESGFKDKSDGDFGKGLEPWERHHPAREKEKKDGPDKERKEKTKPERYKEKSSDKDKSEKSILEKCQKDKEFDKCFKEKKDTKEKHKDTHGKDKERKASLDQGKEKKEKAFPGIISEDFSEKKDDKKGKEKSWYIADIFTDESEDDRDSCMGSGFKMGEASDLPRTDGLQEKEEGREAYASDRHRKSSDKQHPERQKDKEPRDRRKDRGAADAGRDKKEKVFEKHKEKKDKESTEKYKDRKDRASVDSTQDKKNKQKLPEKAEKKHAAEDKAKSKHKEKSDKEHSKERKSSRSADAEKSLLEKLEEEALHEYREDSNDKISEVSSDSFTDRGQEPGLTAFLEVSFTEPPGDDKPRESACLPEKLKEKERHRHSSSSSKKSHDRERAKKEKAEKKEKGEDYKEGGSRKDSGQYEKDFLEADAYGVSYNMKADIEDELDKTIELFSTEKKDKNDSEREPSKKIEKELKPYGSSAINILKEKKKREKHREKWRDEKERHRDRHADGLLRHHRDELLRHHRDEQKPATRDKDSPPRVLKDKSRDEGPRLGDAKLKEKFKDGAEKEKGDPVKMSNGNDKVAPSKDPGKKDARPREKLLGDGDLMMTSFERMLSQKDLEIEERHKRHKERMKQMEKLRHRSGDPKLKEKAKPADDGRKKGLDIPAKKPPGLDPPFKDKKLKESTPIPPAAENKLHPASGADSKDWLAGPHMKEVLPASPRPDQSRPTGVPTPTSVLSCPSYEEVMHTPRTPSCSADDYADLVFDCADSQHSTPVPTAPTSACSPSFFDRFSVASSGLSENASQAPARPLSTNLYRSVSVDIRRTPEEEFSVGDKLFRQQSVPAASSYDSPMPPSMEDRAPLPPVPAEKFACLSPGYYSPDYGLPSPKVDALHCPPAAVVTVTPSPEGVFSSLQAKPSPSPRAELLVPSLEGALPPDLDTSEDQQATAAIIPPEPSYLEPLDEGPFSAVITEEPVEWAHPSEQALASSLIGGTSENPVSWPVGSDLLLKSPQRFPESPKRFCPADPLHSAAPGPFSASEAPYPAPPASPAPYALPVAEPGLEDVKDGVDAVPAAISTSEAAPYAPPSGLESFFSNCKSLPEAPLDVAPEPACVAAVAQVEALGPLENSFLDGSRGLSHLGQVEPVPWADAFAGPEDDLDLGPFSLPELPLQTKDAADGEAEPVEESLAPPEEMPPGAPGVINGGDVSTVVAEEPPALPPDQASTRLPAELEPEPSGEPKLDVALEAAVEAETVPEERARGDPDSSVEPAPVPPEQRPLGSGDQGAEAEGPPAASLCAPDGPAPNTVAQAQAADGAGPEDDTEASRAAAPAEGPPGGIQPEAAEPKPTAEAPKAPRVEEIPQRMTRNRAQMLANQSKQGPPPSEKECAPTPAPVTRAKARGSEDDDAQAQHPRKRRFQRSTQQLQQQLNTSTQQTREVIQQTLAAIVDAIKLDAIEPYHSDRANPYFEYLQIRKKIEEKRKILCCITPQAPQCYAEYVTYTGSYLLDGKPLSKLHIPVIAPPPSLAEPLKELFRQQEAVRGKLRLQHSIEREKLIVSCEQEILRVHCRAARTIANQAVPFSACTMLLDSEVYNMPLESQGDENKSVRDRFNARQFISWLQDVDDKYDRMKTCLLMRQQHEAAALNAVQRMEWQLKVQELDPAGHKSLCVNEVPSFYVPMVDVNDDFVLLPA
UniProt P27216: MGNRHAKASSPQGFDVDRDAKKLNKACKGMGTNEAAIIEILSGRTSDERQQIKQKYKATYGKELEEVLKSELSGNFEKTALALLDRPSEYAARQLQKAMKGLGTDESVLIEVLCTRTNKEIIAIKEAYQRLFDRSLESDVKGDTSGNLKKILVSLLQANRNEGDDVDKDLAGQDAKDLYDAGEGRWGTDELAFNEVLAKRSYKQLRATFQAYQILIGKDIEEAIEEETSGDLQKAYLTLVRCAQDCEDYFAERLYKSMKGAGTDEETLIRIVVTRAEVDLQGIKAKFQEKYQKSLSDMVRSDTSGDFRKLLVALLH
UniProt Q9NXR5: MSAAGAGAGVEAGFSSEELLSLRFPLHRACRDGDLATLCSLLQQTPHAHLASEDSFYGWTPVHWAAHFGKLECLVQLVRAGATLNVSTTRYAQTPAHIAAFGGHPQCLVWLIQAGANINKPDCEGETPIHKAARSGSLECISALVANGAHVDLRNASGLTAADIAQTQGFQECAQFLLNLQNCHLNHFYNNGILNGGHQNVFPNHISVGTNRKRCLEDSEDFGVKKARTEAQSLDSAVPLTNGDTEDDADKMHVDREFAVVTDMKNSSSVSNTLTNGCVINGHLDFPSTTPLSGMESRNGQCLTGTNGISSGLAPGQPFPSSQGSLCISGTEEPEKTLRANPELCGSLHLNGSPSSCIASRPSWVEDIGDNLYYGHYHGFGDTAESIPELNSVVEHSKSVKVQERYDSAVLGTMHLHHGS

compound: C#Cc1cccc(Nc2ncnc3cc(OCCOC)c(OCCOC)cc23)c1 [erlotinib]; experiment: log2 fold change, soluble protein after heating vs DMSO (PISA); higher = thermal stabilisation; K562 lysate, 10 uM; active = over 0.2 and 3.5 SD of the protein, either way, in both replicates (recomputed)
How it was run: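 Following dounce homogenisation of K562 pellets in PBS pH 7.4 with 1 mM MgCl2, crude extract at 1 mg/mL protein was incubated for 30 min with 10 μM compound. Aliquots were then heated for 3 min over 48°C-58°C and pooled, NP-40 was added to 0.5% at 4°C, and soluble protein was recovered as the supernatant at 21,000xg for 90 min. Channel-sum-equalised TMTpro 16plex LC-MS/MS quantified this protein. Each value, from duplicates, is a log-two fold change in thermal stability relative to solvent controls.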

log2 fold change, inactive:
ANKRD40 (UniProt Q6AI12) 0.085, AP1S1 (UniProt P61966) -0.016, AP4E1 (UniProt Q9UPM8) 0.002, AP3D1 isoform 2 (UniProt O14617) 0.029, ANKRD11 (UniProt Q6UB99) -0.005, ANXA13 isoform 2 (UniProt P27216) -0.078, AP2M1 (UniProt Q96CW1) 0.001, AP1S2 (UniProt H7BZG6) -0.051, ANAPC16 (UniProt Q96DE5) 0.046, ANKRD10 (UniProt Q9NXR5) 0.023, ANXA2 (UniProt H0YL33) -0.153
